Measurements as given in patent US20240293418A1, “COMBINATION THERAPY FOR TREATING CANCER” (Epizyme, Inc., priority 2016, published 2024).
Read-outs that look alike come from different tables or passages of the source.

Assays:
L363 = test: cells; conditions: Homo sapiens, L-363, 360 h, read-out: Tazemetostat Day 15 IC50
LP-1 [1] = test: 7 day pretreatment + 4-day co-treatment combination model (Cell Titer Glo); conditions: Homo sapiens, LP-1, 264 h, read-out: 11-day IC50
MM1R = test: cells; conditions: MM.1R, 360 h, read-out: Tazemetostat Day 15 IC50
U266 [2] = system: U266
KMS28BM = test: cells; conditions: KMS-28BM, 360 h, read-out: Tazemetostat Day 15 IC50
NCIH929 = test: cells; conditions: Homo sapiens, NCI-H929, 360 h, read-out: Tazemetostat Day 15 IC50
MM1.S [3] = test: 7-day co-treatment combination model (Cell Titer Glo); conditions: Homo sapiens, 168 h, read-out: 7-day IC50
U266B1 = test: cells; conditions: Multiple myeloma cell, 360 h, read-out: Tazemetostat Day 15 IC50
RPM18226 = test: cells; conditions: Multiple myeloma cell, 360 h, read-out: Tazemetostat Day 15 IC50
Jeko-1 = test: mantle cell lymphoma 7 day co-treatment model; assay type: cell-based; conditions: Homo sapiens, JeKo-1, 168 h, read-out: Tazemetostat 7 day IC50
Mino [4] = test: mantle cell lymphoma 7 day pretreatment + 4-day co-treatment model (Cell Titer Glo); conditions: Homo sapiens, 264 h, read-out: Tazemetostat 11-day IC50
Maver-1 [5] = test: as above; conditions: Homo sapiens, Maver1, 264 h, read-out: Tazemetostat 11-day IC50
LP-1 [6] = test: 7-day co-treatment combination model (Cell Titer Glo); conditions: Homo sapiens, LP-1, 168 h, read-out: 7-day IC50
Granta-519 [7] = test: mantle cell lymphoma 7 day co-treatment model; assay type: cell-based; conditions: Homo sapiens, Granta-519, 168 h, read-out: Tazemetostat 7 day IC50
Granta-519 [8] = test: mantle cell lymphoma 7 day pretreatment + 4-day co-treatment model (Cell Titer Glo); conditions: Homo sapiens, Granta-519, 264 h, read-out: Tazemetostat 11-day IC50
Rec-1 [9] = test: as above; conditions: Homo sapiens, Rec1, 264 h, read-out: Tazemetostat 11-day IC50
MOLP8 = test: cells; conditions: Homo sapiens, MOLP-8, 360 h, read-out: Tazemetostat Day 15 IC50
Z-138 [10] = test: mantle cell lymphoma 7 day co-treatment model; assay type: cell-based; conditions: Homo sapiens, read-out: Tazemetostat 7 day IC50, data derived from 8 and 9 day combination treatment
Mino [11] = test: mantle cell lymphoma 7 day co-treatment model; assay type: cell-based; conditions: Homo sapiens, read-out: Tazemetostat 7 day IC50, data derived from 7 and 9 day combination treatment
Maver-1 [12] = test: mantle cell lymphoma 7 day co-treatment model; assay type: cell-based; conditions: Homo sapiens, Maver1, 168 h, read-out: Tazemetostat 7 day IC50
JVM-2 [13] = test: mantle cell lymphoma 7 day pretreatment + 4-day co-treatment model (Cell Titer Glo); conditions: Homo sapiens, JVM-2, 264 h, read-out: Tazemetostat 11-day IC50
ARH77 = test: cells; conditions: Homo sapiens, ARH-77, 360 h, read-out: Tazemetostat Day 15 IC50
JVM-2 [14] = test: mantle cell lymphoma 7 day co-treatment model; assay type: cell-based; conditions: Homo sapiens, JVM-2, 168 h, read-out: Tazemetostat 7 day IC50
U266 [15] = test: 7 day pretreatment + 4-day co-treatment combination model (Cell Titer Glo); conditions: Homo sapiens, U-266, 264 h, read-out: 11-day IC50
OPM2 = test: cells; conditions: Homo sapiens, OPM-2, 360 h, read-out: Tazemetostat Day 15 IC50
KMS12BM = test: cells; conditions: Homo sapiens, KMS-12-BM, 360 h, read-out: Tazemetostat Day 15 IC50
LP1 = test: cells; conditions: Homo sapiens, LP-1, 360 h, read-out: Tazemetostat Day 15 IC50
Rec-1 [16] = test: mantle cell lymphoma 7 day co-treatment model; assay type: cell-based; conditions: Homo sapiens, Rec1, 168 h, read-out: Tazemetostat 7 day IC50
L-363 [17] = system: L-363
L-363 [18] = test: 7 day pretreatment + 4-day co-treatment combination model (Cell Titer Glo); conditions: Homo sapiens, L-363, 264 h, read-out: 11-day IC50
KMS-28-BM = test: 7-day co-treatment combination model (Cell Titer Glo); conditions: 168 h, read-out: 7-day IC50
MM1S = test: cells; conditions: Homo sapiens, MM1.S, 360 h, read-out: Tazemetostat Day 15 IC50
MOLP2 = test: cells; conditions: MOLP-2, 360 h, read-out: Tazemetostat Day 15 IC50
Z-138 [19] = test: mantle cell lymphoma 7 day pretreatment + 4-day co-treatment model (Cell Titer Glo); conditions: Homo sapiens, Z-138, 264 h, read-out: Tazemetostat 11-day IC50
JJN3 = test: cells; conditions: Homo sapiens, JJN-3, 360 h, read-out: Tazemetostat Day 15 IC50
MM1.S [20] = test: 7 day pretreatment + 4-day co-treatment combination model (Cell Titer Glo); conditions: Homo sapiens, 264 h, read-out: 11-day IC50

For `CCN(c1cc(-c2ccc(CN3CCOCC3)cc2)cc(C(=O)NCc2c(C)cc(C)[nH]c2=O)c1C)C1CCOCC1` [Tazemetostat, tazemetostat], the IC50 (L363) was 280 nM, the IC50 (LP-1 [1]) was 8410 nM and the IC50 (MM1R) was 58 nM. For the same compound, the IC50 (U266 [2]) was > 10000 nM, the IC50 (KMS28BM) was 43 nM and the IC50 (NCIH929) was > 10000 nM. For the same compound, the IC50 (MM1.S [3]) was 5400 nM, the IC50 (U266B1) was 678 nM and the IC50 (RPM18226) was 123 nM. For the same compound, the IC50 (Jeko-1) was > 10000 nM, the IC50 (Mino [4]) was 1970 nM and the IC50 (Maver-1 [5]) was 5610 nM. The IC50 (LP-1 [6]) was > 10000 nM, the IC50 (Granta-519 [7]) was > 10000 nM and the IC50 (Granta-519 [8]) was 4240 nM. The IC50 (Rec-1 [9]) was 870 nM, the IC50 (MOLP8) was 322 nM and the IC50 (Z-138 [10]) was > 10000 nM. For the same compound, the IC50 (Mino [11]) was > 10000 nM, the IC50 (Maver-1 [12]) was > 10000 nM and the IC50 (JVM-2 [13]) was 120 nM. For the same compound, the IC50 (ARH77) was 2930 nM, the IC50 (JVM-2 [14]) was 1400 nM and the IC50 (U266 [15]) was 1500 nM. For the same compound, the IC50 (OPM2) was 303 nM, the IC50 (KMS12BM) was 288 nM and the IC50 (LP1) was 2100 nM. The IC50 (Rec-1 [16]) was > 3000 nM, the IC50 (L-363 [17]) was 728 nM and the IC50 (L-363 [18]) was 474 nM. The IC50 (KMS-28-BM) was 365 nM, the IC50 (MM1S) was 340 nM and the IC50 (MOLP2) was > 10000 nM. The IC50 (Z-138 [19]) was > 10000 nM, the IC50 (JJN3) was 441 nM and the IC50 (MM1.S [20]) was 422 nM.
